Laboratory results: the supplement of paper PMC3334620
The full ranking holds about 33,000 sequences; the median of “E-score (-0.5 to 0.5)” is about -0.0034, and the highest 2% start at about 0.25. This is one part of the list.

molecular target: T1, Yap3 (UniProt P38749); test: PBM E-score (8-mer binding enrichment) (E-score (-0.5 to 0.5)); higher = stronger / more preferred TF binding; details: protein concentration: 100 nM; construct: GST-full length
T1 sequence: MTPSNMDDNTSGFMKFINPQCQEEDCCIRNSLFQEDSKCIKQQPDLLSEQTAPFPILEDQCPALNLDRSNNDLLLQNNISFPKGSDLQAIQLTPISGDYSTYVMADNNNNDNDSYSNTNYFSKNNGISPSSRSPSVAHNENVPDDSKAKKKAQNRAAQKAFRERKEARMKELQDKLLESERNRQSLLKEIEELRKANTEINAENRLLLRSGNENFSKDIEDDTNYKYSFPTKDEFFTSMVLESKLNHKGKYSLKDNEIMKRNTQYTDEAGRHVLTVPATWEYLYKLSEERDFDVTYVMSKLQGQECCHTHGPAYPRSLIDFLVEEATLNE
Procedure, shortened: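 Masliner-normalised scans of fluorescent anti-GST signal were the basis for scoring. That signal came from GST-tagged yeast transcription factors applied at about 100-200 nM to double-stranded universal all-10-mer Agilent arrays on fresh or once-stripped slides. Each ungapped eight-base word, pooled with its reverse complement, received an E-score from the Universal PBM Analysis Suite.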

Row | Sequence | PBM E-score
1 | GGATACTA | -0.03
2 | GATCCCCC | -0.261
3 | GGAACCAA | 0.0569
4 | AAGAGTGG | -0.0925
5 | CCGTCCAG | -0.152
6 | GCTAAGCC | -0.192
7 | GTGCCATA | -0.0657
8 | GATGATGC | -0.169
9 | TAACGCAA | 0.156
10 | CCGCGTAG | -0.00206
11 | GCGCAACC | -0.156
12 | CGCAACAC | -0.0404
13 | CACGGTAA | -0.0552
14 | GCGCATAC | -0.0811
15 | GGTCTAGA | -0.104
16 | CATTACGG | 0.156
17 | ACGTCTAA | 0.0661
18 | CCTTTTCG | 0.0262
19 | CCGTTCAG | -0.1
20 | AGTTGCCG | 0.0305
21 | CTTAGGCC | -0.147
22 | ATCTAAAG | -0.00967
23 | AATTATTA | 0.311
24 | CTCCCCAA | -0.176
25 | GTTCCCAA | -0.17

Row | Sequence | PBM E-score
26 | CCGATATA | 0.0195
27 | CTCCTCAA | -0.231
28 | CGCTAGCC | -0.235
29 | CCAGTGCC | -0.197
30 | GACCGGCC | -0.251
31 | AGCCGTAT | -0.0387
32 | ATTTTGCA | 0.183
33 | ACGTAGTC | -0.262
34 | CCCGCCGG | -0.345
35 | CAATTAAC | 0.0563
36 | GAGGCAGA | -0.184
37 | AATCAAAA | 0.222
38 | CCGCGCAC | -0.0165
39 | AAAAGCCG | -0.00115
40 | AAATTAGT | 0.283
41 | ACGCAGCC | -0.0589
42 | GAGTGCAC | -0.108
43 | AATTTTCC | 0.202
44 | AGTGAAGA | -0.135
45 | AGAGATAT | 0.0503
46 | AGCGGAAG | 0.0705
47 | GACAACAA | 0.209
48 | CTGTTGTA | 0.122
49 | AAAGAACA | 0.216
50 | TAACTTCA | 0.181

Row | Sequence | PBM E-score
51 | CAGATTAG | -0.066
52 | AGCCATGA | -0.0317
53 | AACATTTA | 0.14
54 | GGGAGCCC | -0.383
55 | GCCGGCGA | -0.103
56 | CGGGAAAA | 0.0156
57 | CCTATAAA | -0.16
58 | GTGTTCGA | -0.00112
59 | CGTTTTCA | 0.0762
60 | ATAAAATA | 0.298
61 | CCGCCCCG | 0.222
62 | AAACGTCC | -0.0184
63 | CGCTAGTA | 0.0464
64 | CTGGTGGC | -0.19
65 | GATTGGGA | -0.114
66 | CTCATACC | 0.0801
67 | GATGTCGC | -0.0575
68 | ATTATGAA | 0.261
69 | AGTCGCAT | -0.104
70 | GCTCAAAC | 0.0246
71 | GCGAGCAC | -0.153
72 | ACTTCTTG | -0.044
73 | AATCTCAG | -0.0162
74 | GCTTCACA | -0.0453
75 | GAACGGTA | 0.083

Row | Sequence | PBM E-score
76 | GTTCCGCA | 0.081
77 | AGGTGGAC | -0.187
78 | GGTCCAGA | -0.0784
79 | CGTGAATC | 0.113
80 | CCAGTACA | 0.0428
81 | AGGGGTTC | -0.222
82 | AATTGGCA | 0.0303
83 | ATCTTGAC | -0.13
84 | CGCTCACG | 0.00332
85 | ACGATGCG | -0.041
86 | AAGTAGAT | 0.093
87 | CGTCTACC | -0.0135
88 | GCGGCTAC | -0.104
89 | AACGTACG | 0.0991
90 | ACGTGAAT | 0.163
91 | ACTGCCTG | -0.0152
92 | CCAGTGAA | -0.198
93 | GACGCCTA | -0.0664
94 | CCGCGGCG | -0.0133
95 | GAAGGTAC | 0.0436
96 | AGGTCGTG | -0.106
97 | ACTTCATC | 0.0677
98 | TCCCCAAA | 0.0308
99 | CTGATCGA | -0.239
100 | AATACAGC | 0.073

Row | Sequence | PBM E-score
101 | CGATTGTC | -0.0792
102 | CAAAAGCC | -0.112
103 | CAGCGCAG | -0.115
104 | CACGCTGA | 0.0338
105 | AAGACTCG | -0.08
106 | CAAGACCC | -0.155
107 | AAAGCCTT | -0.129
108 | CTGCATAA | 0.157
109 | ATTCTTCG | -0.0286
110 | GTTTGGTA | 0.214
111 | CCTCACAG | -0.0363
112 | GAGGCCAC | -0.223
113 | CGTGATAA | 0.0442
114 | AGTTCACC | 0.0278
115 | CAATGATA | 0.137
116 | AGGCCACA | -0.191
117 | ATCCCTCG | -0.0303
118 | GTGGCCCA | -0.152
119 | AGGTAATA | 0.294
120 | ACGTTGAT | 0.155
121 | CTGGCGGC | -0.142
122 | CAAGACGA | -0.00312
123 | AGTGTGCA | 0.0195
124 | GTAGCGTA | 0.0978
125 | ATCGCTCA | 0.0478

As entered above:
Value for CTGCATAA under PBM E-score: 0.157
Value for GTGGCCCA under PBM E-score: -0.152

(further entries)

Row | Sequence | PBM E-score
126 | ATTCGATG | 0.0289
127 | CGATGCAA | -0.116
128 | CCGACCGG | -0.178
129 | ATGACATA | 0.243
130 | CATAGGTA | 0.00106
131 | ACAGCCCA | -0.0781
132 | ATTTGAGC | 0.108
133 | AAGAACAC | 0.147
134 | AAGGCTGA | 0.00347
135 | AAATTGTG | 0.131
136 | AGCACAAC | 0.155
137 | CTGGTTTC | 0.0379
138 | ACCGAACT | 0.00037
139 | CTCTTATA | 0.21
140 | AATTATCT | 0.237
141 | AGATGCAG | -0.0481
142 | GAGAACCC | -0.212
143 | ATACTTTG | 0.136
144 | GGTCGTGA | -0.0991
145 | TCAATGGA | 0.0342
146 | AAAAACAC | 0.204
147 | ACCTGACC | -0.0748
148 | GACCCCAC | -0.111
149 | CAGTGCAC | -0.0136
150 | CGGCACGC | -0.15

In a second layout: results already given.

| Row | Sequence | PBM E-score |
| --- | --- | --- |
| 127 | CGATGCAA | -0.116 |
| 128 | CCGACCGG | -0.178 |
| 135 | AAATTGTG | 0.131 |
| 138 | ACCGAACT | 0.00037 |
| 147 | ACCTGACC | -0.0748 |

(list continues)

Row | Sequence | PBM E-score
151 | ATATGGAT | 0.184
152 | ACCTTGCT | -0.146
153 | ATCCACTG | 0.0249
154 | ACAGCTAG | -0.0504
155 | TAGCGGAA | -0.00131
156 | AAAGTCCC | -0.155
157 | CAAAGCAC | 0.0239
158 | CTGTCTTC | -0.0302
159 | ACTTCGGG | -0.109
160 | GGGGATCA | -0.305
161 | GATAGAGC | 0.00266
162 | CGTGGGAA | -0.134
163 | GTATTAAC | 0.0508
164 | ACTTTACG | 0.115
165 | AAAGTTCA | 0.0821
166 | TGCCAAAA | 0.1
167 | AAATTATT | 0.275
168 | AAGTAGAC | -0.0979
169 | CCCGAATA | 0.0745
170 | ACACAGGG | -0.00095
171 | CCAATTGC | -0.0704
172 | GGGCTTGA | -0.17
